Assay results reported in the supplement of paper PMC12819154, “High-throughput peptide-centric local stability assay extends protein–ligand identification to membrane proteins, tissues and bacteria” (Nature Structural & Molecular Biology, 2025).
The other results are listed elsewhere or left out. Most values lie at the level of the controls, where differences are scatter.

By UniProt entry, the sequences of proteins in these tests, tags left out. Where a name states a change or a piece, a line headed by the entry shows the natural chain unless it says otherwise.
UniProt Q9BSM1: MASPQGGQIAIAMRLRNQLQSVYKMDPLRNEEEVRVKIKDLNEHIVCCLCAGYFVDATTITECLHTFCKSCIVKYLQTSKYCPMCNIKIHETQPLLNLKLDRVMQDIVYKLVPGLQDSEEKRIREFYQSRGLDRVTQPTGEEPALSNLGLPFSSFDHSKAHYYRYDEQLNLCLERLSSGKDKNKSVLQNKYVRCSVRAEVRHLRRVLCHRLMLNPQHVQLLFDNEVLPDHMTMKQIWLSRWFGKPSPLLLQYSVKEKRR
UniProt Q99996, whole entry: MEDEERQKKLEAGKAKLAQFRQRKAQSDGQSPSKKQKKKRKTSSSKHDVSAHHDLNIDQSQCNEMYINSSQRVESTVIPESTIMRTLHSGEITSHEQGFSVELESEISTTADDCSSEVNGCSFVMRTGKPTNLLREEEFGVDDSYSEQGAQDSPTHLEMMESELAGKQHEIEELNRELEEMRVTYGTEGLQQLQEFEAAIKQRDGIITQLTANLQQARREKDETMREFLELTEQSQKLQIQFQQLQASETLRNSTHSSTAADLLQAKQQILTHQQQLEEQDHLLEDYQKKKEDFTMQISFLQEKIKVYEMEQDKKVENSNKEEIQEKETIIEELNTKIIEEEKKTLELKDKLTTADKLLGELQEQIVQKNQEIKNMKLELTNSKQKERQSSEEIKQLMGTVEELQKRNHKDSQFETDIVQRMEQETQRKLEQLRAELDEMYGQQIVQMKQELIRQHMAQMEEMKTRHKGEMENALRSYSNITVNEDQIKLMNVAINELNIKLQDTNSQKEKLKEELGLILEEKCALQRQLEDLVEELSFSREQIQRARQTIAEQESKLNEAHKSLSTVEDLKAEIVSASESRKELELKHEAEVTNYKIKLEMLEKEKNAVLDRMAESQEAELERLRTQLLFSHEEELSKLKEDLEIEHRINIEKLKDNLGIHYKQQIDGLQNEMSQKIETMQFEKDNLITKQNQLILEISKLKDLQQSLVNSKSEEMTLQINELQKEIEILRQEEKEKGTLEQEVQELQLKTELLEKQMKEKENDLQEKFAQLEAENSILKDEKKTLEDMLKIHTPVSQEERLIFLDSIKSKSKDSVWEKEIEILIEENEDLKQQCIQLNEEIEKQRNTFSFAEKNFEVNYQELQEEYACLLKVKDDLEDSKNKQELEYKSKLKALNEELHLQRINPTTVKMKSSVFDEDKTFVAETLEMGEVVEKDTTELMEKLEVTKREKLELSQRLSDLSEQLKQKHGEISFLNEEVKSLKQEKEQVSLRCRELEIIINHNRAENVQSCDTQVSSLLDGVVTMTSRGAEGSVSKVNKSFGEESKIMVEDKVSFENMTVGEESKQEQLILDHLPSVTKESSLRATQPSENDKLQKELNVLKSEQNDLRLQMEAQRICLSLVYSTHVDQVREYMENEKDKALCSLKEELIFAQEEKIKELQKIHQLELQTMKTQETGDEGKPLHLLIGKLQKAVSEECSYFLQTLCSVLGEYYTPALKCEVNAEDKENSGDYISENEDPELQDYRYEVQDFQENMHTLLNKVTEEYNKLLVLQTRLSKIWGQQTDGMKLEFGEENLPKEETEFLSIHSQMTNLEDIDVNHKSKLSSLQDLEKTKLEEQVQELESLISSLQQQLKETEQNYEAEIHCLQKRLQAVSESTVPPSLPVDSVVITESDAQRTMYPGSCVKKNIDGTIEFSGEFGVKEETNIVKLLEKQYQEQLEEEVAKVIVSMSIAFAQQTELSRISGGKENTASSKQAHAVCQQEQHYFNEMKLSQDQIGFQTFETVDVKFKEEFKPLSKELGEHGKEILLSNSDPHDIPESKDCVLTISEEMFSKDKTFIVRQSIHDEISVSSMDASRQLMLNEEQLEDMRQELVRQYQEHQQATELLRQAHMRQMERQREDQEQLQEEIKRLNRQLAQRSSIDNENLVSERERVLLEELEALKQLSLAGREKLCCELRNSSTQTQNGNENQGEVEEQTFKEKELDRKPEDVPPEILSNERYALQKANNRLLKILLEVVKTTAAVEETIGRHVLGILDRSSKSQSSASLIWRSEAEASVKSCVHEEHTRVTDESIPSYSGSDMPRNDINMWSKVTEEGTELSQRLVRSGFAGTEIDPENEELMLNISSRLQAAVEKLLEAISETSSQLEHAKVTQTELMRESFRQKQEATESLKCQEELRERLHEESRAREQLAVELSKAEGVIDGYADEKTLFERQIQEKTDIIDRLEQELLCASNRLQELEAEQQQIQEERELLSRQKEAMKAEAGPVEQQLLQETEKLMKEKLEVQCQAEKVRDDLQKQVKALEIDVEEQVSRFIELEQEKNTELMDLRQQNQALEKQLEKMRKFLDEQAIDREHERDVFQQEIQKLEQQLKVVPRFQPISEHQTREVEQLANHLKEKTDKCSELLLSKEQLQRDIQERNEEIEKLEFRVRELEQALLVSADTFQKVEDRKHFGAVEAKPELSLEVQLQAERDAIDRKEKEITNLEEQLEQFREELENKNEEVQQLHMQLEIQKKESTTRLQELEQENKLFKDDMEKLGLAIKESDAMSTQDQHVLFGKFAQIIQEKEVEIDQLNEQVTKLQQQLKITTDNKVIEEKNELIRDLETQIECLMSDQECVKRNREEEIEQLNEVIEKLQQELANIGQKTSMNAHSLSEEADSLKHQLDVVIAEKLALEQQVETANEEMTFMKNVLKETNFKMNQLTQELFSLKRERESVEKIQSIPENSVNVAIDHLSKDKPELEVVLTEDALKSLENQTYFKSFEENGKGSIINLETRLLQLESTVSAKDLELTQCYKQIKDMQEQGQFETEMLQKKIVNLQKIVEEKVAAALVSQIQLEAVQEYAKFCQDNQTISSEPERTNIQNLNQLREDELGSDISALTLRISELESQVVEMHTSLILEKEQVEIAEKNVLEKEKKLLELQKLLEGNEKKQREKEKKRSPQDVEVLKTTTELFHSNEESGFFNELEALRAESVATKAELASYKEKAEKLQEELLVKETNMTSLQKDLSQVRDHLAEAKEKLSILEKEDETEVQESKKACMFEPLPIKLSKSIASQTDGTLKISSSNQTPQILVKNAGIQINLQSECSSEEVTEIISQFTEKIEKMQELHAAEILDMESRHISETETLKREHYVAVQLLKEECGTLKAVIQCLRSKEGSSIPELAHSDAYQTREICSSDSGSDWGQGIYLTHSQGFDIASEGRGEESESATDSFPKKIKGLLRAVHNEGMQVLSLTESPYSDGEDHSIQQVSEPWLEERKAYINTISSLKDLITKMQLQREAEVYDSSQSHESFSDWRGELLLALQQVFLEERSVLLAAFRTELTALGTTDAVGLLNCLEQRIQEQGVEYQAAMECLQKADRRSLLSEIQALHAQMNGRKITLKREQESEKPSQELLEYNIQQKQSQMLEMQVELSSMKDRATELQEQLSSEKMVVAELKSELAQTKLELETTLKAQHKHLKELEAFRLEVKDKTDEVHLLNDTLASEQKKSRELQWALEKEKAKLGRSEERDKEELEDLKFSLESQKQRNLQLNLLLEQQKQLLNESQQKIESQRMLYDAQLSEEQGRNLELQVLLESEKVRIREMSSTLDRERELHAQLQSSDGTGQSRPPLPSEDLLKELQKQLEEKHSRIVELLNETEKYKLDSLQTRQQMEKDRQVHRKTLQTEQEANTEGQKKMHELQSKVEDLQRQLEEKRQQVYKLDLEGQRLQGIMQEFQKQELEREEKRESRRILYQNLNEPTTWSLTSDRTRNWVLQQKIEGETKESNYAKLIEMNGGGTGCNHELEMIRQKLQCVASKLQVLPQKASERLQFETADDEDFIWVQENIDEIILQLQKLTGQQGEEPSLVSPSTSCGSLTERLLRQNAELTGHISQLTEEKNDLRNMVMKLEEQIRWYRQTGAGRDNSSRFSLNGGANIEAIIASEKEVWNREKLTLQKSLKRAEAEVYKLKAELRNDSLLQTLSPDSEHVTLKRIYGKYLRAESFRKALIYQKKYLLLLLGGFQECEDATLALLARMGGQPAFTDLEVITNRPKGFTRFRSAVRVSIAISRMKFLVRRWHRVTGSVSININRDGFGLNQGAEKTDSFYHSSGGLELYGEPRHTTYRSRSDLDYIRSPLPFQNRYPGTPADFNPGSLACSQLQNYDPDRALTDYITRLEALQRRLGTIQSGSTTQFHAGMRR
UniProt Q99747: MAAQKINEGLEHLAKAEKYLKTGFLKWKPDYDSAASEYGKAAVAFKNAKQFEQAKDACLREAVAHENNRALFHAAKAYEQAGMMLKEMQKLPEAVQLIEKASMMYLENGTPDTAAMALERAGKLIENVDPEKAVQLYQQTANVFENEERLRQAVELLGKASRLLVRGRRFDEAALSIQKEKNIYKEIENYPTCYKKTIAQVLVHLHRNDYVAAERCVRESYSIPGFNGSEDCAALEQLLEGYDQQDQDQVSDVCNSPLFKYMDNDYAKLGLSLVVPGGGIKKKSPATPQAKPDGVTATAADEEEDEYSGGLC
UniProt Q96T23: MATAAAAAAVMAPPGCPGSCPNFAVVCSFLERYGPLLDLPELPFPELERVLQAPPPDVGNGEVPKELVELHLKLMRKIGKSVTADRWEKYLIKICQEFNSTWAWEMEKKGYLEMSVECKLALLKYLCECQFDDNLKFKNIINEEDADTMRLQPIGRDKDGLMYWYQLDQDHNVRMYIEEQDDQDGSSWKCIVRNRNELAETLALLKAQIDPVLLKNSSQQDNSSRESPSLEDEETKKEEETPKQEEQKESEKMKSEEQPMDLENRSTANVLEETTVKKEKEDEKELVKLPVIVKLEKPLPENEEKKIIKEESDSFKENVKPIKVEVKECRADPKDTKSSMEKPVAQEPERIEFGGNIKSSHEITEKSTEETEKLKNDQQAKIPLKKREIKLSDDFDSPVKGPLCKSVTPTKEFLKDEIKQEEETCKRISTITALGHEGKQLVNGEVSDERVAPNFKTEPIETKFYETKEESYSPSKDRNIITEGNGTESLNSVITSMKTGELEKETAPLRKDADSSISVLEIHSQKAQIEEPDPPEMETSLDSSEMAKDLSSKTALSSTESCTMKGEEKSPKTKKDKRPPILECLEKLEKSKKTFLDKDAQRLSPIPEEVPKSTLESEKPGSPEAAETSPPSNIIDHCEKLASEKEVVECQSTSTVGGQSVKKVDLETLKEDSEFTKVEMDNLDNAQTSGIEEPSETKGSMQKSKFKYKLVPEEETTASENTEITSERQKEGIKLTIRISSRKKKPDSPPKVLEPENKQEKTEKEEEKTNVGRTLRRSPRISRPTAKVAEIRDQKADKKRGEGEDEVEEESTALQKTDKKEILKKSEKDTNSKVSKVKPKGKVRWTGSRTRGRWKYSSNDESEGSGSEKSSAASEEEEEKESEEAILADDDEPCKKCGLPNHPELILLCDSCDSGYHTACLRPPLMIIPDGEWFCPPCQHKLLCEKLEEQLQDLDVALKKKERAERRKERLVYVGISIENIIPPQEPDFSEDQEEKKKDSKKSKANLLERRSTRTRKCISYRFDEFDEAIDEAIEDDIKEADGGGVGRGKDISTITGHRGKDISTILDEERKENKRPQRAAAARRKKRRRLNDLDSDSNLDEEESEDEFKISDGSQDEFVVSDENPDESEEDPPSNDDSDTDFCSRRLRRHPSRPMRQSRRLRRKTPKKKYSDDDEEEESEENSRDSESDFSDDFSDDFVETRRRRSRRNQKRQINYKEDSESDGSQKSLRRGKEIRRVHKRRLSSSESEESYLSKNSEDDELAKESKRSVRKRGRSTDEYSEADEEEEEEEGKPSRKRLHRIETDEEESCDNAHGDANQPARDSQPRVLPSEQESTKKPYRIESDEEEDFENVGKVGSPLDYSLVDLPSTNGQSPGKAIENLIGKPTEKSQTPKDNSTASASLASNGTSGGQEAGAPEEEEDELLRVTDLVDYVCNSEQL
UniProt Q99966: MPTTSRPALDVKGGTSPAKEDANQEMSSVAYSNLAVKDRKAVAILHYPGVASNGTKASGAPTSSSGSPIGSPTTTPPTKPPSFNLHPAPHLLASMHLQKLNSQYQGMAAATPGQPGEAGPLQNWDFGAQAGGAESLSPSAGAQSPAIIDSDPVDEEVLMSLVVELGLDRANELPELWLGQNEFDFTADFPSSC
UniProt Q9BSG1: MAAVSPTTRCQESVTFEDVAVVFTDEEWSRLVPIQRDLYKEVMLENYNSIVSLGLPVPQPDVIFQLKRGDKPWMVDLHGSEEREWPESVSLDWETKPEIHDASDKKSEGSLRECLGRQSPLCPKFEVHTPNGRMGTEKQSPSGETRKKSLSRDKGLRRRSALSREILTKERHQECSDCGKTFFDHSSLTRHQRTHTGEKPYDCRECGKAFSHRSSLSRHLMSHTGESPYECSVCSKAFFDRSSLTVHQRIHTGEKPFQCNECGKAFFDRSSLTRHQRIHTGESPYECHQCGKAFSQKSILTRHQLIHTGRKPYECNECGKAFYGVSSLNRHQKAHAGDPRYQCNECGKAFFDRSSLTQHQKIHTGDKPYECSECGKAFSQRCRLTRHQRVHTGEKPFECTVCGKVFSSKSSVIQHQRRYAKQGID

compound: Cc1nc(Nc2ncc(C(=O)Nc3c(C)cccc3Cl)s2)cc(N2CCN(CCO)CC2)n1 [dasatinib]; test: log2 fold change of tryptic peptide abundance, ligand vs vehicle (limited proteolysis) (log2 ratio); higher = more trypsin-susceptible (destabilized); details: ligand concentration: 5 uM; sample: K562 cleared lysate

| Target | log2 fold change |
| --- | --- |
| UniProt Q96TA1 (peptide sequence: AAPEASSPPASPLQHLLPGK, peptide start residue: 686) | -0.122 |
| PHF23 (peptide sequence: LGPGAGAGFGVLR, peptide start residue: 188) (UniProt Q9BUL5) | 0.588 |
| PCGF1 (peptide sequence: NQLQSVYK, peptide start residue: 17) (UniProt Q9BSM1) | 0.0658 |
| DNAJC2 (peptide sequence: KKEEMNR, peptide start residue: 259) (UniProt Q99543) | 0.172 |
| AKAP9 (peptide sequence: QREDQEQLQEEIKR, peptide start residue: 1619) (UniProt Q99996) | -0.212 |
| UBL7 (peptide sequence: SMPSSSYR, peptide start residue: 211) (UniProt Q96S82) | -0.143 |
| PYGO2 (peptide sequence: KQGKAGLQMK, peptide start residue: 30) (UniProt Q9BRQ0) | 0.0529 |
| LBHD1 (peptide sequence: LPNPLWDR, peptide start residue: 30) (UniProt Q9BQE6) | -0.304 |
| UniProt Q9BQ61 (peptide sequence: GGPGSTLSFVGKR, peptide start residue: 107) | 0.131 |
| UniProt Q9BR11 (peptide sequence: MNIQILEDTHK, peptide start residue: 363) | 0.552 |
| NAPG (peptide sequence: TIAQVLVHLHRNDYVAAER, peptide start residue: 197) (UniProt Q99747) | -0.571 |
| UniProt Q9BUH6 (peptide sequence: FGLSAAEDITPR, peptide start residue: 64) | 0.0867 |
| LIMD2 (peptide sequence: GNYDEGFGR, peptide start residue: 100) (UniProt Q9BT23) | 0.161 |
| BAG1 (peptide sequence: SEEVTREEMAAAGLTVTVTHSNEK, peptide start residue: 131) (UniProt Q99933) | 0.553 |
| RSF1 (peptide sequence: QLVNGEVSDER, peptide start residue: 440) (UniProt Q96T23) | -0.721 |
| S100A13 (peptide sequence: SLDVNQDSELK, peptide start residue: 62) (UniProt Q99584) | 0.089 |
| UHRF1 (peptide sequence: REEEEQQEGGFASPR, peptide start residue: 627) (UniProt Q96T88) | -0.487 |
| CDC6 (peptide sequence: LVLNTAVPDRLPAR, peptide start residue: 162) (UniProt Q99741) | -0.251 |
| RNF2 (peptide sequence: VNKPMELYYAPTKEHK, peptide start residue: 321) (UniProt Q99496) | 0.12 |
| UniProt Q99966 (peptide sequence: AVAILHYPGVASNGTK, peptide start residue: 41) | -0.236 |
| HINFP (peptide sequence: YKEHEDGYMR, peptide start residue: 381) (UniProt Q9BQA5) | 0.0815 |
| RPP25 (peptide sequence: SLGEPAAGEGSAK, peptide start residue: 172) (UniProt Q9BUL9) | 0.0443 |
| PDCD10 (peptide sequence: LIHQTNLILQTFK, peptide start residue: 197) (UniProt Q9BUL8) | -0.0869 |
| UniProt Q9BSG1 (peptide sequence: ERHQECSDCGK, peptide start residue: 170) | -0.145 |
| CCM2 (peptide sequence: AIFDGASTPTHHLSLHSDDSSTK, peptide start residue: 232) (UniProt Q9BSQ5) | 0.341 |
| UniProt Q9BTX1 (peptide sequence: SSQMPRPSVPPLVK, peptide start residue: 417) | -0.323 |
| EFHD1 (peptide sequence: LGAPQTHLGLK, peptide start residue: 124) (UniProt Q9BUP0) | -0.125 |
| PLEKHF1 (peptide sequence: QEWISHIEECVRR, peptide start residue: 120) (UniProt Q96S99) | -0.355 |

Individual results from the list.
log2 fold change, CCM2 (peptide sequence: AIFDGASTPTHHLSLHSDDSSTK, peptide start residue: 232) (UniProt Q9BSQ5) reads 0.341
log2 fold change, PCGF1 (peptide sequence: NQLQSVYK, peptide start residue: 17) (UniProt Q9BSM1) reads 0.0658
